Measurements taken from the supplement of paper PMC10849652.
This is one part of the list.

The chains behind the UniProt entries cited, without tags or fusion partners. Where a name states a change or a piece, a line headed by the entry shows the natural chain unless it says otherwise.
UniProt Q8NEM7: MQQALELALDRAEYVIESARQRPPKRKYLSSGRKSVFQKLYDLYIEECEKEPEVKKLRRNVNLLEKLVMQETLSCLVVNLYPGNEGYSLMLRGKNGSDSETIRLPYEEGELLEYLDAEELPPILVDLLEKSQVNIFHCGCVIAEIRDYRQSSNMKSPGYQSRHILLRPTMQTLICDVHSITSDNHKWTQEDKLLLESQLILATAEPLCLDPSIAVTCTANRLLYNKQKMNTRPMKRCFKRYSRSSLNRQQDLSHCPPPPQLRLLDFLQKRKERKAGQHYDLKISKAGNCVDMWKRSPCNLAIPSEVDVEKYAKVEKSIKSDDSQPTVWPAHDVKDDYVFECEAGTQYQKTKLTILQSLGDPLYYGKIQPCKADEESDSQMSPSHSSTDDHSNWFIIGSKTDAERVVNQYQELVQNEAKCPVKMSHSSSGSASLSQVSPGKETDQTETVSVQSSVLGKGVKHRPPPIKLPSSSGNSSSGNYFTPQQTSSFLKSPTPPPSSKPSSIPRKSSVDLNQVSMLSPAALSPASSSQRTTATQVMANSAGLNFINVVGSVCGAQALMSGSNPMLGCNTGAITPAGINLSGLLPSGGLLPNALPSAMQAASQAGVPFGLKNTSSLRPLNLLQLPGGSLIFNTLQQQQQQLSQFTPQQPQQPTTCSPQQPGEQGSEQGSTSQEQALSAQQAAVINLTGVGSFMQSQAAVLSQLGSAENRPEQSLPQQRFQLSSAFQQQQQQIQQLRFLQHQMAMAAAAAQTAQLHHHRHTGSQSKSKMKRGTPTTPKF
UniProt Q15527: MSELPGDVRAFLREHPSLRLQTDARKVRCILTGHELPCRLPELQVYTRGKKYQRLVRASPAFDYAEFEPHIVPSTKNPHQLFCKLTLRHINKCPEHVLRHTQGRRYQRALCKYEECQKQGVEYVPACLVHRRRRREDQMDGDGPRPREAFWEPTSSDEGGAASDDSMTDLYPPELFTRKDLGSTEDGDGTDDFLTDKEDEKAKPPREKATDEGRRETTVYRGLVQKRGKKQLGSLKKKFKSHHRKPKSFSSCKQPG
UniProt Q9UMX1: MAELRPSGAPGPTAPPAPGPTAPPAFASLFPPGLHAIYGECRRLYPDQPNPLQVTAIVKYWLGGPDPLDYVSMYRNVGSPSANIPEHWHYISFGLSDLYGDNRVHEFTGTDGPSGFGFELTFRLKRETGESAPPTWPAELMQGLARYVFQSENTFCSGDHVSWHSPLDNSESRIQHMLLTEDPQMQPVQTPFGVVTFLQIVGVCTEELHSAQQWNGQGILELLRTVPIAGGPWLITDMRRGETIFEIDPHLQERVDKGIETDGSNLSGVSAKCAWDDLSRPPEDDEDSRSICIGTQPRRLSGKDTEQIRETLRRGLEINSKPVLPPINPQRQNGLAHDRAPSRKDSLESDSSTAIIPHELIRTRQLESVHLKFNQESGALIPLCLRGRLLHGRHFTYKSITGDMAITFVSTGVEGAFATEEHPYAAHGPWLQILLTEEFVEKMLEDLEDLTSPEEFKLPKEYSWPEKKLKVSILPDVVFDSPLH
UniProt Q53T94: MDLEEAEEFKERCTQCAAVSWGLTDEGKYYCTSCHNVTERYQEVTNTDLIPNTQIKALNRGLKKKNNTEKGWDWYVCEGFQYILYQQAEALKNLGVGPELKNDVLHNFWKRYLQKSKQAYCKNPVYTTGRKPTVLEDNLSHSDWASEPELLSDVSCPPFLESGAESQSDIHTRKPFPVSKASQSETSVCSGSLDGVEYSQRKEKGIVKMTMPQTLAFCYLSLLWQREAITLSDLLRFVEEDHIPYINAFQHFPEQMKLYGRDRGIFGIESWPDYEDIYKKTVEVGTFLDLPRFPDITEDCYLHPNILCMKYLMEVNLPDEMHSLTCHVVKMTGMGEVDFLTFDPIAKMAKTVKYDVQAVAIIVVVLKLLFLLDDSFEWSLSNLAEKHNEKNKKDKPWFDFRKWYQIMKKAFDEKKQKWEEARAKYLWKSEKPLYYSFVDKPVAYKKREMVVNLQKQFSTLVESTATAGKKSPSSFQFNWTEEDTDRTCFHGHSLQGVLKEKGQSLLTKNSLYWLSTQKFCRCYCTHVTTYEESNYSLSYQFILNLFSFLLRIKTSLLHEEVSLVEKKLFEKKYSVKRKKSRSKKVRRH
UniProt P61956, whole entry, looked up: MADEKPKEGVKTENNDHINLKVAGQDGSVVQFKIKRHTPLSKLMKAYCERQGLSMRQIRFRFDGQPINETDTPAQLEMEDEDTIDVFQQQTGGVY
UniProt P21675, whole entry, looked up: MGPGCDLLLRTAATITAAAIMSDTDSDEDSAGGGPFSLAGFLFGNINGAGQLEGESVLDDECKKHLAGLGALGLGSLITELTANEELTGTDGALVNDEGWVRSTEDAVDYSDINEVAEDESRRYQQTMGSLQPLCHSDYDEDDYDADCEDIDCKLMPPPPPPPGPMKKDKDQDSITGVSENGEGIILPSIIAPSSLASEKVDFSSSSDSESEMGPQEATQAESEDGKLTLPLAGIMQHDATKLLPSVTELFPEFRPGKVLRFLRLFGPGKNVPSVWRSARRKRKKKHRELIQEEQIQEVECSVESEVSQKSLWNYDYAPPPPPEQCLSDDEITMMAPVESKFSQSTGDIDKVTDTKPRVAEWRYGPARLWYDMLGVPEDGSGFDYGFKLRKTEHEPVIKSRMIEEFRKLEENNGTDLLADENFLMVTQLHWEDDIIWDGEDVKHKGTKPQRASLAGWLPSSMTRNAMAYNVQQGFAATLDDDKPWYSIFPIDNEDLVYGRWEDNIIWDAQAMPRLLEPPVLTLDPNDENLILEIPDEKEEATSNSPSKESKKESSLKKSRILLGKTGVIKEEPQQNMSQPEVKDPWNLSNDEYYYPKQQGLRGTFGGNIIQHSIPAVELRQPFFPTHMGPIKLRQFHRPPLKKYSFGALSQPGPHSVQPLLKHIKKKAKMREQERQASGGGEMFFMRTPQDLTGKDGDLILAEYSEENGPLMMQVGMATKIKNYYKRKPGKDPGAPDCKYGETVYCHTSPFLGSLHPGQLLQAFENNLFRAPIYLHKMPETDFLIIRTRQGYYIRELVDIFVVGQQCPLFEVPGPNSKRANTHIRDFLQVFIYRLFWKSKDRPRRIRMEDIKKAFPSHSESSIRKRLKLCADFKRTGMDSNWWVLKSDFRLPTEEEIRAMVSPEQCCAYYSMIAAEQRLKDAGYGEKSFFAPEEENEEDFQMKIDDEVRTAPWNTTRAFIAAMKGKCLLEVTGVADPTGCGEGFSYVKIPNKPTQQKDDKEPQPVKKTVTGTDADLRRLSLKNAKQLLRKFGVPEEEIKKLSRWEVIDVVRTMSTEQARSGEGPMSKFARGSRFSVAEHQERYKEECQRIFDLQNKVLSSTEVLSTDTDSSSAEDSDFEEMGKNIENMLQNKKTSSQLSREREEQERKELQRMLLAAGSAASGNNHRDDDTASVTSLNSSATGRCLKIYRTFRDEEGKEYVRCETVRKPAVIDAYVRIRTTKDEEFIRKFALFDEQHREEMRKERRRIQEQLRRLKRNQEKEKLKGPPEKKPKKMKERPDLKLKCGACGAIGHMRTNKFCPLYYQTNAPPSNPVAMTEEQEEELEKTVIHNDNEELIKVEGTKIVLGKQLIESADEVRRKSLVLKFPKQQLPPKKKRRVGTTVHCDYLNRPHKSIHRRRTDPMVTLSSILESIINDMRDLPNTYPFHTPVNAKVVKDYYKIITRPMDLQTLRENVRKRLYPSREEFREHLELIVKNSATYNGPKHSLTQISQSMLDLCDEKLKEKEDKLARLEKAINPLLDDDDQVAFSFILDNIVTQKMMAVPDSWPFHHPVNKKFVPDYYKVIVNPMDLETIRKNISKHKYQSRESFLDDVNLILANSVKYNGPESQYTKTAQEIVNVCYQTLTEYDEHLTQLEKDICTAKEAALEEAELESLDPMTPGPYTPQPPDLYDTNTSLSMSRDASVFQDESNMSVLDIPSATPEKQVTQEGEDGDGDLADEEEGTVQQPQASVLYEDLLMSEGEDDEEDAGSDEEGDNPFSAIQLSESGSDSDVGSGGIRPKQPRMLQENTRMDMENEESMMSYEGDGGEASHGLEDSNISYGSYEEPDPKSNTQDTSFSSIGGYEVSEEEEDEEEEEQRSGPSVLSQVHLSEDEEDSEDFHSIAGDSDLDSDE
UniProt P31948, whole entry, looked up: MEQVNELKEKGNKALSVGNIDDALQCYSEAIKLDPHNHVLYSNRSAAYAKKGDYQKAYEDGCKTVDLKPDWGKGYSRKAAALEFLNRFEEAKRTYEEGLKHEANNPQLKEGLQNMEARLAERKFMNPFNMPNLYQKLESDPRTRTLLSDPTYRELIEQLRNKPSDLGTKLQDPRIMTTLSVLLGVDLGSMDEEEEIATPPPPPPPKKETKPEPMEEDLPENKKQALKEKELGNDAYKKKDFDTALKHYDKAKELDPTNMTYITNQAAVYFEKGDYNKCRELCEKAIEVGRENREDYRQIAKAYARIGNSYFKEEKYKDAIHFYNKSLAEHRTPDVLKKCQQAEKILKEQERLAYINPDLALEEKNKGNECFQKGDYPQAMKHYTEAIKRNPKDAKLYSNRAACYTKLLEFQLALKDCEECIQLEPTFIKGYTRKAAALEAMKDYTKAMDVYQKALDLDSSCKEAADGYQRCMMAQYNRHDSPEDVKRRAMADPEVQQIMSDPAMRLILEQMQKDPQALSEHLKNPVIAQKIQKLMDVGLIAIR
UniProt Q15572: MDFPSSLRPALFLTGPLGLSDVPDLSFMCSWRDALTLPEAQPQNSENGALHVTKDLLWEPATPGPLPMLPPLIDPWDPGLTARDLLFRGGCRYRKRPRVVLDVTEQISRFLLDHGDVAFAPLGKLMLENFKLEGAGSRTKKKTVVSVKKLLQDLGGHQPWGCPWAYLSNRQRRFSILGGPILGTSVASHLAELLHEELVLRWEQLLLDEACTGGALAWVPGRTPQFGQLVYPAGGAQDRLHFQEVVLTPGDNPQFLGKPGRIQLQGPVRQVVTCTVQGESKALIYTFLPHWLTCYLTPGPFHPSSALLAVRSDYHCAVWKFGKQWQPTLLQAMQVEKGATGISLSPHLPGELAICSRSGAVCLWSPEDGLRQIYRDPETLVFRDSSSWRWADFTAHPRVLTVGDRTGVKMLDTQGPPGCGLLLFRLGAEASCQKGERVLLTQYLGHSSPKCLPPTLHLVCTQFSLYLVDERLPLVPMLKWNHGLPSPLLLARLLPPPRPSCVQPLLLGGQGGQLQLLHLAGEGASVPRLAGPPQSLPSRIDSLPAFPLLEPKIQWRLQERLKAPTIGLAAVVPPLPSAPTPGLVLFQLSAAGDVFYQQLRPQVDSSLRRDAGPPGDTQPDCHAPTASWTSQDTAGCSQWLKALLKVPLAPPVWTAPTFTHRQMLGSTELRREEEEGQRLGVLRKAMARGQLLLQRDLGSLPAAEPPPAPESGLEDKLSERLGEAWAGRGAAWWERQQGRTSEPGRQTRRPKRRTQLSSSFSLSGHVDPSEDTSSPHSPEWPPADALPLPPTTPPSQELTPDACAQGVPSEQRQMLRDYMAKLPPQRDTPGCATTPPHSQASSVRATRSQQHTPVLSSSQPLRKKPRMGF
UniProt O00268, whole entry, looked up: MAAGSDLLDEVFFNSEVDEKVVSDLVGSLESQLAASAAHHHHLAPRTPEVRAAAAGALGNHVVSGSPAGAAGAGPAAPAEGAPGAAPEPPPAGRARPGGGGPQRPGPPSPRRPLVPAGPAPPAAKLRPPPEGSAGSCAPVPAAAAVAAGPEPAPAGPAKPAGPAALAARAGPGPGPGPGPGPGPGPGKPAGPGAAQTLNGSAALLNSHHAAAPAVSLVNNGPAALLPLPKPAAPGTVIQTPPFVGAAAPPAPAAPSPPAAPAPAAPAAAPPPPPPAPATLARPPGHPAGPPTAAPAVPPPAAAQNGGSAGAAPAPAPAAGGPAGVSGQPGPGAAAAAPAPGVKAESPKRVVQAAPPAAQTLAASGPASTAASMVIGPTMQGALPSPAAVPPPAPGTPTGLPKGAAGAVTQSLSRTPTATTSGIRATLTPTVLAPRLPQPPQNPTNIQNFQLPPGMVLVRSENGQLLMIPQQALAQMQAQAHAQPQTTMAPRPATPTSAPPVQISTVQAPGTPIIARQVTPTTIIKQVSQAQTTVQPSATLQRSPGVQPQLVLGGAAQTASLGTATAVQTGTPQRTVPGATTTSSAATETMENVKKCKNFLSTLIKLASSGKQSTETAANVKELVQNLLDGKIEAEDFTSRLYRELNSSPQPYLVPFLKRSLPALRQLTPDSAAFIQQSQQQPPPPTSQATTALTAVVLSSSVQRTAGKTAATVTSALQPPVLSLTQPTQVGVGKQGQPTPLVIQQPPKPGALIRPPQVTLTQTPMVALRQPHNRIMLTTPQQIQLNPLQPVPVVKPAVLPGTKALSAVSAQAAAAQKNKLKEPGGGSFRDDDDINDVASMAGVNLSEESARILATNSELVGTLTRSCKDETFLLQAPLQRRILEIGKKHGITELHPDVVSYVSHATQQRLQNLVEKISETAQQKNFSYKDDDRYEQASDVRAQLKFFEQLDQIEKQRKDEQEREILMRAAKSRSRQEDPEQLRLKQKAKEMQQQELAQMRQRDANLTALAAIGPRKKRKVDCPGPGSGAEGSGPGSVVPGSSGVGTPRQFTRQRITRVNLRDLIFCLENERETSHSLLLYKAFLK

How the values were obtained:
Experiment in all cases: log2 fold change, soluble protein after heating vs DMSO (PISA); higher = thermal stabilisation; K562 lysate, 10 uM; active = over 0.2 and 3.5 SD of the protein, either way, in both replicates (recomputed)
vemurafenib = compound: CCCS(=O)(=O)Nc1ccc(F)c(C(=O)c2c[nH]c3ncc(-c4ccc(Cl)cc4)cc23)c1F [vemurafenib]
How it was run: (§1)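 Log-two fold change in thermal stability relative to solvent controls is reported from duplicates. For each sample, crude K562 extract from dounce-homogenised pellets in PBS pH 7.4 with 1 mM MgCl2, at 1 mg/mL protein, was treated with 10 μM compound for 30 min. Aliquots heated for 3 min across 48°C-58°C were pooled, brought to 0.5% NP-40 at 4°C and cleared at 21,000xg for 90 min. The supernatant was quantified by TMTpro 16plex LC-MS/MS with channel sums equalised.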

[1] = compound: CCCS(=O)(=O)Nc1ccc(F)c(C(=O)c2c[nH]c3ncc(Cl)cc23)c1F
How it was run: as §1

barasertib = compound: CCN(CCCOc1ccc2c(Nc3cc(CC(=O)Nc4cccc(F)c4)[nH]n3)ncnc2c1)CCOP(=O)(O)O [barasertib]
How it was run: as §1

[2] = compound: CC[C@@H]1C(=O)N(C)c2cnc(Nc3ccc(C(=O)NC4CCN(C)CC4)cc3OC)nc2N1C1CCCC1
How it was run: as §1

volasertib = compound: CC[C@@H]1C(=O)N(C)c2cnc(Nc3ccc(C(=O)N[C@H]4CC[C@H](N5CCN(CC6CC6)CC5)CC4)cc3OC)nc2N1C(C)C [volasertib]
How it was run: as §1

[3] = compound: CCn1c(C(=O)N(C2CC2)C2CC2)cc2c3c(ncn3C)c(Nc3cc(C)n(C)n3)nc21
How it was run: as §1

[4] = compound: CCn1cc(-c2ccnc3[nH]c(-c4cccc(CN(C)C)c4)cc23)c(-c2ccc(NC(=O)N(C)C)cc2)n1
How it was run: as §1

[5] = compound: CN1CCC(CNc2ccc3ncc(-c4cccc(OC(F)(F)F)c4)n3n2)CC1
How it was run: as §1

sotrastaurin = compound: CN1CCN(c2nc(C3=C(c4c[nH]c5ccccc45)C(=O)NC3=O)c3ccccc3n2)CC1 [sotrastaurin]
How it was run: as §1

alvocidib = compound: CN1CC[C@H](c2c(O)cc(O)c3c(=O)cc(-c4ccccc4Cl)oc23)[C@H](O)C1 [alvocidib]
How it was run: as §1

Tubastatin A = compound: CN1CCc2c(c3ccccc3n2Cc2ccc(C(=O)NO)cc2)C1 [Tubastatin A]
How it was run: as §1

[6] = compound: CNC(=O)C1=CC=CC=C1NC2=NC(=NC=C2Cl)NC3=C(C=C(C=C3)N4CCOCC4)OC
How it was run: as §1

defactinib = compound: CNC(=O)c1ccc(Nc2ncc(C(F)(F)F)c(NCc3nccnc3N(C)S(C)(=O)=O)n2)cc1 [defactinib]
How it was run: as §1

encorafenib = compound: COC(=O)N[C@@H](C)CNc1nccc(-c2cn(C(C)C)nc2-c2cc(Cl)cc(NS(C)(=O)=O)c2F)n1 [encorafenib]
How it was run: as §1

[7] = compound: COC(=O)[C@H](CCSC)NC(=O)C1=C(C=C(C=C1)NC[C@H](CS)N)C2=CC=CC=C2
How it was run: as §1

alisertib = compound: COc1cc(Nc2ncc3c(n2)-c2ccc(Cl)cc2C(c2c(F)cccc2OC)=NC3)ccc1C(=O)O [alisertib]
How it was run: as §1

[8] = compound: COc1cc2nc(-c3cc(F)ccc3O)nc(N[C@@H]3CNC[C@H]3C(C)(C)O)c2cc1OC
How it was run: as §1

gefitinib = compound: COc1cc2ncnc(Nc3ccc(F)c(Cl)c3)c2cc1OCCCN1CCOCC1 [gefitinib]
How it was run: as §1

saracatinib = compound: CN1CCN(CCOc2cc(OC3CCOCC3)c3c(Nc4c(Cl)ccc5c4OCO5)ncnc3c2)CC1 [saracatinib]
How it was run: as §1

[9] = compound: CNc1nc(-c2ccc3c(N)n[nH]c3c2)cc(N2C[C@@H](C(=O)NC3CCCCC3)CC[C@H]2C)n1
How it was run: as §1

| Target | log2 fold change (vemurafenib) | log2 fold change [1] | log2 fold change (barasertib) | log2 fold change [2] | log2 fold change (volasertib) | log2 fold change [3] | log2 fold change [4] | log2 fold change [5] | log2 fold change (sotrastaurin) | log2 fold change (alvocidib) | log2 fold change (Tubastatin A) | log2 fold change [6] | log2 fold change (defactinib) | log2 fold change (encorafenib) | log2 fold change [7] | log2 fold change (alisertib) | log2 fold change [8] | log2 fold change (gefitinib) | log2 fold change (saracatinib) | log2 fold change [9] |
| --- | --- | --- | --- | --- | --- | --- | --- | --- | --- | --- | --- | --- | --- | --- | --- | --- | --- | --- | --- | --- |
| STN1 (UniProt Q9H668) | inactive: 0.047 | inactive: -0.389 | inactive: 0.114 | inactive: -0.071 | inactive: -0.068 | inactive: -0.016 | inactive: -0.179 | inactive: 0.31 | inactive: -0.025 | inactive: -0.078 | inactive: -0.032 | inactive: 0.173 | inactive: 0.016 | inactive: 0.024 | inactive: -0.149 | inactive: -0.026 | active: -0.562 | inactive: 0.053 |  |  |
| SWAP70 (UniProt Q9UH65) | inactive: 0.016 | inactive: 0.002 | inactive: 0 | inactive: -0.031 | inactive: -0.019 | inactive: 0.023 | inactive: -0.221 | inactive: 0.04 | inactive: -0.001 | inactive: -0.079 | inactive: -0.007 | inactive: 0.019 | inactive: -0.011 | inactive: 0.011 | inactive: 0.003 | inactive: 0.019 | inactive: 0.027 | inactive: 0.026 | inactive: 0.029 | inactive: -0.024 |
| SYNJ2BP (UniProt P57105) | inactive: 0.081 | inactive: 0.063 | inactive: 0.072 | inactive: 0.094 | inactive: -0.022 | inactive: 0.05 |  |  | inactive: 0.035 |  | inactive: -0.022 | inactive: 0.012 | inactive: 0.17 | inactive: -0.029 | inactive: 0.091 | inactive: -0.053 | inactive: 0.032 | inactive: 0.187 | inactive: 0.074 | inactive: -0.039 |
| SYNJ2BP-COX16, A0A087WYV9 | inactive: 0.037 | inactive: -0.073 | inactive: -0.008 | inactive: 0.015 | inactive: -0.026 | inactive: -0.031 | inactive: 0.093 | inactive: -0.105 | inactive: 0.012 | inactive: 0.109 | inactive: 0.059 | inactive: -0.077 | inactive: 0.048 | inactive: -0.036 | inactive: -0.043 | inactive: 0.008 | inactive: 0.109 | inactive: -0.065 | inactive: -0.011 | inactive: 0.024 |
| SUN2 isoform 2 (UniProt Q9UH99) | inactive: -0.064 | inactive: 0.006 | inactive: 0.13 | inactive: -0.065 | inactive: -0.077 | inactive: 0.247 | inactive: 0.106 | inactive: -0.102 | inactive: -0.094 | inactive: 0.016 | inactive: 0.06 | inactive: 0.022 | inactive: 0.023 | inactive: 0.126 | inactive: 0.131 |  | inactive: -0.021 |  | inactive: 0.074 | inactive: 0.008 |
| SUGT1 isoform 2 (UniProt Q9Y2Z0) | inactive: -0.026 | inactive: -0.026 | inactive: -0.246 | inactive: 0.079 | inactive: -0.04 | inactive: 0.08 |  |  | inactive: -0.104 |  | inactive: 0.083 | inactive: 0.029 | inactive: -0.073 | inactive: -0.161 | inactive: -0.09 | inactive: 0.031 | inactive: 0.078 | inactive: 0.08 | inactive: 0.072 | inactive: -0.089 |
| SUPT20H isoform 3 (UniProt Q8NEM7) | inactive: -0.034 | inactive: 0.087 | inactive: 0.013 | inactive: 0.065 | inactive: -0.095 | inactive: -0.118 |  |  | inactive: -0.006 |  | inactive: 0.01 | inactive: 0.419 | inactive: -0.016 | inactive: 0.061 | inactive: -0.103 | inactive: 0.088 | inactive: 0.296 | inactive: -0.468 | inactive: 0.144 | inactive: 0.414 |
| TAF5 (UniProt Q15542) | inactive: -0.043 | inactive: 0.053 | inactive: -0.098 |  | inactive: -0.07 | inactive: -0.092 | inactive: 0.256 | inactive: 0.044 |  | inactive: -0.003 | inactive: 0.086 | inactive: 0.05 | inactive: 0.023 |  |  |  | inactive: 0.051 |  | inactive: -0.079 | inactive: 0.002 |
| SURF2 (UniProt Q15527) | inactive: -0.009 | inactive: -0.002 | inactive: -0.007 | inactive: 0.049 | inactive: 0.002 | inactive: 0.127 | inactive: -0.063 | inactive: 0.02 | inactive: -0.007 | inactive: -0.02 | inactive: -0.276 |  | inactive: 0.016 | inactive: -0.001 | active: -0.319 | inactive: -0.005 | inactive: 0.011 | inactive: -0.041 | inactive: 0.004 | inactive: 0.013 |
| SUFU (UniProt Q9UMX1) | inactive: 0.012 | inactive: 0.247 |  |  | inactive: 0.06 | inactive: -0.055 | inactive: -0.01 | inactive: -0.05 | inactive: -0.099 | inactive: -0.032 | inactive: -0.039 |  | inactive: 0.034 |  |  |  | inactive: -0.159 |  |  |  |
| TAF1B (UniProt Q53T94) | inactive: 0.397 | inactive: -0.217 | inactive: 0.11 | inactive: -0.212 | inactive: -0.057 | inactive: -0.039 | inactive: -0.12 | inactive: 0.166 | inactive: 0.055 | inactive: 0.175 | inactive: -0.083 |  | inactive: -0.024 | inactive: 0.073 | inactive: -0.13 | inactive: -0.177 | inactive: -0.047 | inactive: 0.016 | inactive: 0.045 | inactive: 0.614 |
| SUMO2 (UniProt P61956) | inactive: -0.004 | inactive: -0.104 | inactive: 0.161 | inactive: 0.136 | inactive: 0.039 | inactive: -0.064 | inactive: 0.042 | inactive: 0.012 | inactive: 0.037 | inactive: -0.051 | inactive: 0.04 | inactive: -0.102 | inactive: 0.016 | inactive: -0.005 | inactive: -0.132 | inactive: 0 | inactive: 0.025 | inactive: -0.003 | inactive: 0.035 | inactive: 0.074 |
| TAF1 isoform 4 (UniProt P21675) | inactive: 0.07 | inactive: -0.047 |  | inactive: -0.139 | inactive: -0.13 | inactive: 0.033 | inactive: 0.138 | inactive: 0.247 | inactive: 0.01 | inactive: -0.257 | inactive: -0.079 | inactive: -0.007 | inactive: -0.051 | inactive: 0 | inactive: 0.133 | inactive: -0.037 | inactive: -0.064 | inactive: -0.04 | inactive: -0.017 | inactive: -0.034 |
| SYK (UniProt P43405) | inactive: 0.184 | inactive: 0.065 | inactive: 0.092 |  | inactive: 0.027 | inactive: -0.123 | active: -0.644 | inactive: -0.001 | inactive: 0.068 | inactive: -0.142 | inactive: -0.015 | inactive: -0.009 | inactive: -0.105 | inactive: 0.01 | inactive: 0.154 |  | inactive: 0.11 | inactive: -0.004 | inactive: -0.041 | inactive: 0.115 |
| STIP1 isoform 2 (UniProt P31948) | inactive: -0.026 | inactive: -0.015 | inactive: -0.024 | inactive: -0.003 | inactive: 0.036 | inactive: 0.003 | inactive: 0.137 | inactive: -0.065 | inactive: -0.012 | inactive: 0.059 | inactive: 0.012 | inactive: 0 | inactive: 0 | inactive: -0.019 | inactive: -0.034 | inactive: -0.005 | inactive: 0.005 | inactive: -0.007 | inactive: -0.001 | inactive: 0.007 |
| TAF1C (UniProt Q15572) | inactive: 0.012 |  | inactive: 0.012 | inactive: 0.017 |  | inactive: -0.07 | inactive: -0.058 | inactive: 0.051 | inactive: -0.053 | inactive: 0.085 | inactive: -0.078 |  | inactive: -0.079 | inactive: -0.072 | inactive: -0.067 | inactive: 0.071 |  | inactive: -0.015 | inactive: 0.049 | inactive: -0.021 |
| TAF4 (UniProt O00268) | inactive: -0.139 | inactive: 0.044 | inactive: 0.159 | inactive: 0.061 | inactive: 0.015 | inactive: -0.033 |  |  | inactive: 0.007 |  | inactive: -0.046 | inactive: -0.051 | inactive: -0.024 | inactive: -0.006 | inactive: -0.016 | inactive: 0.029 | inactive: -0.154 | inactive: -0.041 | inactive: -0.005 | inactive: 0.023 |
| STXBP5 (UniProt Q5T5C0) | inactive: 0.03 | inactive: -0.012 | inactive: 0.007 | inactive: 0.029 | inactive: 0.011 | inactive: 0.009 | inactive: -0.072 | inactive: 0.01 | inactive: -0.027 | inactive: -0.003 | inactive: 0.037 | inactive: 0.053 | inactive: -0.011 | inactive: 0.005 | inactive: 0.019 | inactive: -0.029 | inactive: 0.02 | inactive: -0.037 | inactive: 0.016 | inactive: 0.057 |

Part of the list above with just log2 fold change (alisertib) and log2 fold change [1].

| Target | log2 fold change (alisertib) | log2 fold change [1] |
| --- | --- | --- |
| SYNJ2BP-COX16, A0A087WYV9 | inactive: 0.008 | inactive: -0.073 |
| SUFU (UniProt Q9UMX1) |  | inactive: 0.247 |
